{"sequences": {"note": "By UniProt entry, the sequences of proteins in these tests, tags left out. Residues count along the entry.", "UniProt P08581, residues 25-932": "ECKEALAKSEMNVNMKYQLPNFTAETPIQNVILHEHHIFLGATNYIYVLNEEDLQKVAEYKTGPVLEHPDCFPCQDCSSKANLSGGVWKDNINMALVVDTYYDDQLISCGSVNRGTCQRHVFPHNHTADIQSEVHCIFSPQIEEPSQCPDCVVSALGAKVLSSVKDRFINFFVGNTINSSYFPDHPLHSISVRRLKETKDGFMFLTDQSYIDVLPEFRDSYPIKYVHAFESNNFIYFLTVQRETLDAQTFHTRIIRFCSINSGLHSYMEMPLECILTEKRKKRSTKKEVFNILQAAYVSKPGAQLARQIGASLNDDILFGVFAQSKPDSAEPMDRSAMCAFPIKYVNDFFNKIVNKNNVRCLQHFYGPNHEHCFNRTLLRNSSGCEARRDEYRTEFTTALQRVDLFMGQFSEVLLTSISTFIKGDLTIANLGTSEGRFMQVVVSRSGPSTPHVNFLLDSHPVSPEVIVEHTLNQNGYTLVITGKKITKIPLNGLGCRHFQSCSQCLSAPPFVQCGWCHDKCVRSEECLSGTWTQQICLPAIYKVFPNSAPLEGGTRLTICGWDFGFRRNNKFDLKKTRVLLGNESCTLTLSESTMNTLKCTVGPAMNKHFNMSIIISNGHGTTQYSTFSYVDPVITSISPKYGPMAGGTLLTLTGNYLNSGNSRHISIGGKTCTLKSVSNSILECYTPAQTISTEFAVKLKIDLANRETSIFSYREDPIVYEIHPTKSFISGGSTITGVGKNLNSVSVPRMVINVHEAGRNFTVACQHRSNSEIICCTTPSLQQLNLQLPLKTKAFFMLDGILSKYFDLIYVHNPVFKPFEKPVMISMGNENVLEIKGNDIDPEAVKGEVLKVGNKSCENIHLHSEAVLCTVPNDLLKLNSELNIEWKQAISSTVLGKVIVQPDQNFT"}, "source": "patent US20140221622A1", "target": "biotin-labeled cMet (UniProt P08581)", "test": "indirect ELISA: antibody captured on anti-IgG Fc coated plate, biotin-labeled cMet detected with streptavidin-HRP, OD450", "note": "No constants are given. Whether binding was seen depends on the method and setting. Some binding calls cover weakened binding; strength is not graded here.", "data": [{"binder": "cMet AA4 Ig (antibody, human IgG1, kappa, V domains shown) VH: QVQLQQSGPELVRPGASVKMSCRASGYTFTSYWLHWVKQRPGQGLEWIGMIDPSNSDTRFNPNFKDKATLNVDRSSNTAYMLLSSLTSADSAVYYCATYGSYAAPLDYWGQGTSVTVSS VL: DFMMSQSPSSLTVSVGEKVTVSCKSSQSLLYTSSQKNYLAWYQQKPGQSPKLLIYWASTRESGVPDRFTGSGSGTDFTLTITSVKADDLAVYYCQQYYAYPWTFGGGTKLELKR", "values": [{"measurement": "binding", "value": "binds"}]}, {"binder": "cMet AA1 Ig (antibody, human IgG1, kappa, V domains shown) VH: QVQLQQSGPELVRPGASVKMSCRASGYTFTSYWLHWVKQRPGQGLEWIGMIDPSNSDTRFNPNFKDKATLNVDRSSNTAYMLLSSLTSADSAVYYCAAYGSYVSPLDYWGQGTSVTVSS VL: DFMMSQSPSSLTVSVGEKVTVSCKSSQSLLYTSSQKNYLAWYQQKPGQSPKLLIYWASTRESGVPDRFTGSGSGTDFTLTITSVKADDLAVYYCQQYYAYPWTFGGGTKLELKR", "values": [{"measurement": "binding", "value": "binds"}]}]}
